Results reported in patent publication US20100144755A1 (Glaxo Group Limited, priority 2006, published 2010).
Counter-ions that a name gives are not always drawn. Some of these results come from one statement about several compounds together.

By UniProt entry, the sequences of proteins in these tests, tags left out.
UniProt Q16539, whole entry: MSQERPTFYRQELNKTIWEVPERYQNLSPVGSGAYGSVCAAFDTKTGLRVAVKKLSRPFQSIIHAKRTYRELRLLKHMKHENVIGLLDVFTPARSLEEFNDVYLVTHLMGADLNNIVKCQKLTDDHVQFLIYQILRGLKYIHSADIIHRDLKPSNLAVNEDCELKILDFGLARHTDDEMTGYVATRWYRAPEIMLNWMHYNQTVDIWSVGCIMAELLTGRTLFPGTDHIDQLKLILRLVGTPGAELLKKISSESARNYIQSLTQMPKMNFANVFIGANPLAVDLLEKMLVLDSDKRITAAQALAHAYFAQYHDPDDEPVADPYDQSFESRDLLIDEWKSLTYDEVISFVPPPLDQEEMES

target: T1, Recombinant human p38α (Homo sapiens, UniProt Q16539); test: Time-resolved fluorescence resonance energy transfer (TR-FRET) kinase assay (standard and low volume); type: biochemical; set-up: key: active: a pIC50 of greater than 4.6 up to about a pIC50 of greater than 10.0; details: MKK6-activated p38α 100 pM, GST-ATF2 substrate; result in words
T1 construct: His; made in house
Description: Time-Resolved Fluorescence Resonance Energy Transfer Linase Standard Assay
(§1) Recombinant human p38α was expressed as a His-tagged protein. To activate this protein, 3 μM unactivated p38α was incubated in 200 mM Hepes pH 7.4, 625 mM NaCl, 1 mM DTT with 27 nM active MKK6 (Upstate), 1 mM ATP and 10 mM MgCl2 The activity of the MKK6-activated p38α was assessed using a time-resolved fluorescence resonance energy transfer (TR-FRET) assay.
Biotinylated-GST-ATF2 (residues 19-96, 400 nM final), ATP ([…]) and MgCl2 (5 mM final) in assay buffer (40 mM HEPES pH 7.4, 1 mM DTT) were added to wells containing 1 ul of various concentrations of compound or DMSO vehicle (3% final) in NUNC 384 well black plate. The reaction was initiated by the addition of MKK6-activated p38 (100 pM final) to give a total volume of 30 ul. The reaction was incubated for 120 minutes at room temperature, then terminated by the addition of 15 μl of 100 mM EDTA pH 7.4. Detection reagent (15 μl) in buffer (100 mM HEPES pH 7.4, 150 mM NaCl, 0.1% w/v BSA, 1 mM DTT) containing antiphosphothreonine-ATF2-71 polyclonal antibody (Cell Signalling Technology, Beverly Mass., USA) labelled with W-1024 europium chelate (Wallac O Y, Turku, Finland), and APC-labelled streptavidin (Prozyme, San Leandro, Calif., USA) was added and the reaction was further incubated for 60 minutes at room temperature. The degree of phosphorylation of GST-ATF2 was measured using a Packard Discovery plate reader (Perkin-Elmer Life Sciences, Pangbourne, UK) as a ratio of specific 665 nm energy transfer signal to reference europium 620 nm signal.
Time-Resolved Fluorescence Resonance Energy Transfer Kinase Low Volume Assay
as §1, with “pH7.4,” for “pH 7.4,”
Biotinylated-GST-ATF2 (residues 19-96, 400 nM final), ATP (125 μM final) and MgCl2 (5 mM final) in assay buffer (40 mM HEPES pH 7.4, 1 mM DTT) were added to wells containing 0.1 μl of various concentrations of compound or DMSO vehicle (1.7% final) in Greiner low volume 384 well black plate. The reaction was initiated by the addition of MKK6-activated p38α (100 pM final) to give a total volume of 6 μl. The reaction was incubated for 120 minutes at room temperature, then terminated by the addition of 3 μl of detection reagent in buffer (100 mM HEPES pH 7.4, 150 mM NaCl, 0.1% w/v BSA, 1 mM DTT, 100 mM EDTA) containing antiphosphothreonine-ATF2-71 polyclonal antibody (Cell Signalling Technology, Beverly Mass., USA) labelled with W-1024 europium chelate (Wallac O Y, Turku, Finland), and APC-labelled streptavidin (Prozyme, San Leandro, Calif., USA). The reaction was further incubated for 60 minutes at room temperature. The degree of phosphorylation of GST-ATF2 was measured using a BMG Rubystar plate reader (BMG, UK) as a ratio of specific 665 nm energy transfer signal to reference europium 620 nm signal.
It is noted that there are two assay formats shown above for the Time-resolved fluorescence resonance energy transfer kinase assay. The only difference between these two assays is the volume used and the plate type. […] The results described herein may have been performed in either assay format and are not differentiated as to which.

| Compound | activity (pIC50) in TR-FRET p38α kinase assay |
| --- | --- |
| CCN(CC)CCCNc1nc(-c2cc(C(=O)Nc3cccnc3)ccc2C)c2ccc(=O)n(-c3c(F)cccc3F)c2n1 [Example 159, 3-[2-{[3-(diethylamino)propyl]amino}-8-(2,6-difluorophenyl)-7-oxo-7,8-dihydropyrido[2,3-d]pyrimidin-4-yl]-4-methyl-N-3-pyridinylbenzamide] | active |
| CCN(CC)CCCNc1nc(-c2cc(C(=O)NCCc3c[nH]cn3)ccc2C)c2ccc(=O)n(-c3c(F)cccc3F)c2n1 [Example 146, 3-[2-{[3-(diethylamino)propyl]amino}-8-(2,6-difluorophenyl)-7-oxo-7,8-dihydropyrido[2,3-d]pyrimidin-4-yl]-N-[2-(1H-imidazol-4-yl)ethyl]-4-methylbenzamide] | active |
| CCN(CC)CCCNc1nc(-c2cc(C(=O)N[C@@H](C)C(C)C)ccc2C)c2ccc(=O)n(-c3c(F)cccc3F)c2n1 [Example 131, 3-[2-{[3-(diethylamino)propyl]amino}-8-(2,6-difluorophenyl)-7-oxo-7,8-dihydropyrido[2,3-d]pyrimidin-4-yl]-N-[(1S)-1,2-dimethylpropyl]-4-methylbenzamide] | active |
| CCN(CC)CCCNc1nc(-c2cc(C(=O)N[C@H](C)c3ccccc3)ccc2C)c2ccc(=O)n(-c3c(F)cccc3F)c2n1 [Example 148, 3-[2-{[3-(diethylamino)propyl]amino}-8-(2,6-difluorophenyl)-7-oxo-7,8-dihydropyrido[2,3-d]pyrimidin-4-yl]-4-methyl-N-[(1R)-1-phenylethyl]benzamide] | active |
| CCN(CC)CCCNc1nc(-c2cc(C(=O)NC)ccc2C)c2ccc(=O)n(-c3c(F)cccc3F)c2n1 [Example 119, 3-[2-{[3-(diethylamino)propyl]amino}-8-(2,6-difluorophenyl)-7-oxo-7,8-dihydropyrido[2,3-d]pyrimidin-4-yl]-N,4-dimethylbenzamide] | active |
| CCSCCNC(=O)c1ccc(C)c(-c2nc(NCCCN(CC)CC)nc3c2ccc(=O)n3-c2c(F)cccc2F)c1 [Example 144, 3-[2-{[3-(diethylamino)propyl]amino}-8-(2,6-difluorophenyl)-7-oxo-7,8-dihydropyrido[2,3-d]pyrimidin-4-yl]-N-[2-(ethylthio)ethyl]-4-methylbenzamide] | active |
| CCCNC(=O)c1ccc(C)c(-c2nc(NCCCN(CC)CC)nc3c2ccc(=O)n3-c2c(F)cccc2F)c1 [Example 122, 3-[2-{[3-(diethylamino)propyl]amino}-8-(2,6-difluorophenyl)-7-oxo-7,8-dihydropyrido[2,3-d]pyrimidin-4-yl]-4-methyl-N-propylbenzamide] | active |
| CCN(CC)CCCNc1nc(-c2cc(C(=O)NCCF)ccc2C)c2ccc(=O)n(-c3c(F)cccc3F)c2n1 [Example 133, 3-[2-{[3-(diethylamino)propyl]amino}-8-(2,6-difluorophenyl)-7-oxo-7,8-dihydropyrido[2,3-d]pyrimidin-4-yl]-N-(2-fluoroethyl)-4-methylbenzamidetrifluoroacetate] | active |
| CCN(CC)CCCNc1nc(-c2cc(C(=O)NC(C)C)ccc2C)c2ccc(=O)n(-c3c(F)cccc3F)c2n1 [118(b), 3-[2-{[3-(diethylamino)propyl]amino}-8-(2,6-difluorophenyl)-7-oxo-7,8-dihydropyrido[2,3-d]pyrimidin-4-yl]-4-methyl-N-(1-methylethyl)benzamide] | active |
| CCNC(=O)c1ccc(C)c(-c2nc(NCCCN(CC)CC)nc3c2ccc(=O)n3-c2c(F)cccc2F)c1 [Example 129, 3-[2-{[3-(diethylamino)propyl]amino}-8-(2,6-difluorophenyl)-7-oxo-7,8-dihydropyrido[2,3-d]pyrimidin-4-yl]-N-ethyl-4-methylbenzamide] | active |
| CCN(CC)CCCNc1nc(-c2cc(C(=O)NCC3CCCC3)ccc2C)c2ccc(=O)n(-c3c(F)cccc3F)c2n1 [Example 132, N-(cyclopentylmethyl)-3-[2-{[3-(diethylamino)propyl]amino}-8-(2,6-difluorophenyl)-7-oxo-7,8-dihydropyrido[2,3-d]pyrimidin-4-yl]-4-methylbenzamidetrifluoroacetate] | active |
| CCN(CC)CCCNc1nc(-c2cc(C(=O)N(C)C)ccc2C)c2ccc(=O)n(-c3c(F)cccc3F)c2n1 [Example 120, 3-[2-{[3-(diethylamino)propyl]amino}-8-(2,6-difluorophenyl)-7-oxo-7,8-dihydropyrido[2,3-d]pyrimidin-4-yl]-N,N,4-trimethylbenzamide] | active |
| CCN(CC)CCCNc1nc(-c2cc(C(=O)NCC3CC3)ccc2C)c2ccc(=O)n(-c3c(F)cccc3F)c2n1 [Example 138, N-(cyclopropylmethyl)-3-[2-{[3-(diethylamino)propyl]amino}-8-(2,6-difluorophenyl)-7-oxo-7,8-dihydropyrido[2,3-d]pyrimidin-4-yl]-4-methylbenzamide trifluoroacetate] | active |
| CCN(CC)CCCNc1nc(-c2cc(C(=O)NC(CO)CO)ccc2C)c2ccc(=O)n(-c3c(F)cccc3F)c2n1 [Example 121, 3-[2-{[3-(diethylamino)propyl]amino}-8-(2,6-difluorophenyl)-7-oxo-7,8-dihydropyrido[2,3-d]pyrimidin-4-yl]-N-[2-hydroxy-1-(hydroxymethyl)ethyl]-4-methylbenzamide] | active |
| CCN(CC)CCCNc1nc(-c2cc(C(=O)O)ccc2C)c2ccc(=O)n(-c3c(F)cccc3F)c2n1 [118(a), 3-[2-{[3-(diethylamino)propyl]amino}-8-(2,6-difluorophenyl)-7-oxo-7,8-dihydropyrido[2,3-d]pyrimidin-4-yl]-4-methylbenzoic acid] | active |
| CCN(CC)CCCNc1nc(-c2cc(C(=O)NC3CCC3)ccc2C)c2ccc(=O)n(-c3c(F)cccc3F)c2n1 [Example 137, N-cyclobutyl-3-[2-{[3-(diethylamino)propyl]amino}-8-(2,6-difluorophenyl)-7-oxo-7,8-dihydropyrido[2,3-d]pyrimidin-4-yl]-4-methylbenzamide trifluoroacetate] | active |
| CCN(CC)CCCNc1nc(-c2cc(C(=O)NCC3CCCCC3)ccc2C)c2ccc(=O)n(-c3c(F)cccc3F)c2n1 [Example 135, N-(cyclohexylmethyl)-3-[2-{[3-(diethylamino)propyl]amino}-8-(2,6-difluorophenyl)-7-oxo-7,8-dihydropyrido[2,3-d]pyrimidin-4-yl]-4-methylbenzamidetrifluoroacetate] | active |
| CCN(CC)CCCNc1nc(-c2cc(C(=O)Nc3ccccc3)ccc2C)c2ccc(=O)n(-c3c(F)cccc3F)c2n1 [Example 147, 3-[2-{[3-(diethylamino)propyl]amino}-8-(2,6-difluorophenyl)-7-oxo-7,8-dihydropyrido[2,3-d]pyrimidin-4-yl]-4-methyl-N-phenylbenzamide] | active |
| CCN(CC)CCCNc1nc(-c2cc(C(=O)NC3CCCC3)ccc2C)c2ccc(=O)n(-c3c(F)cccc3F)c2n1 [Example 125, N-cyclopentyl-3-[2-{[3-(diethylamino)propyl]amino}-8-(2,6-difluorophenyl)-7-oxo-7,8-dihydropyrido[2,3-d]pyrimidin-4-yl]-4-methylbenzamide] | active |
